{
  "source": "patent EP2116263A1",
  "about": "“Reversibly light-switchable drug-conjugates” (priority 2008, dated 2009)",
  "key": {"[1]": {"test_system": "NFAT transcriptional activation", "assay": "NFAT-luciferase reporter gene assay in PMA/ionomycin-stimulated Jurkat T cells", "type": "cell-based, human", "settings": "for trans/cis difference of activity in suppressing NFAT transcriptional activation: preformed cis/trans, Jurkat"}, "[2]": {"test_system": "endogenous cyclophilins in blood lysate", "assay": "PPIase activity in blood lysate, protease coupled assay", "type": "biochemical, human"}, "[3]": {"assay": "Photo-isomerization and thermal re-equilibration (UV/Vis, HPLC)", "type": "physicochemical", "settings": "25 °C, UV time course at 370 nm"}},
  "note": "Part of at least one peptide drawing is inferred or uncertain, most often the ends.",
  "data": [
    {"smiles": "C/C=C/C[C@@H](C)[C@@H](O)[C@H]1C(=O)N[C@@H](CC)C(=O)N(C)CC(=O)N(C)[C@@H](CC(C)C)C(=O)N[C@@H](C(C)C)C(=O)N(C)[C@@H](CC(C)C)C(=O)N[C@@H](C)C(=O)N[C@H](COCC(=O)Nc2ccc(N=Nc3ccc(NC(=O)COC[C@H]4NC(=O)[C@H](C)NC(=O)[C@H](CC(C)C)N(C)C(=O)[C@H](C(C)C)NC(=O)[C@H](CC(C)C)N(C)C(=O)CN(C)C(=O)[C@H](CC)NC(=O)[C@H]([C@H](O)[C@H](C)C/C=C/C)N(C)C(=O)[C@H](C(C)C)N(C)C(=O)[C@H](CC(C)C)N(C)C(=O)[C@H](CC(C)C)N(C)C4=O)cc3)cc2)C(=O)N(C)[C@@H](CC(C)C)C(=O)N(C)[C@@H](CC(C)C)C(=O)N(C)[C@@H](C(C)C)C(=O)N1C", "note": "[CsA-AB-CsA]", "values": [
      {"measurement": "trans/cis difference of activity in suppressing NFAT transcriptional activation", "setting": "[1]; no SA", "result": 2.5, "unit": "fold"},
      {"measurement": "change of endogenous PPIase activity in blood lysate", "setting": "[2]; irradiation at 370 nm (3 min)", "result": "a little change"},
      {"measurement": "change of endogenous PPIase activity in blood lysate", "setting": "[2]; irradiation at 740 nm (45 min)", "result": "remarkable decrease"},
      {"measurement": "half-life of the photoswitched cis conformer (cis to trans thermal isomerization)", "setting": "[3]", "result": 3, "unit": "h"}
    ]},
    {"smiles": "C/C=C/C[C@@H](C)[C@@H](O)[C@H]1C(=O)N[C@@H](CC)C(=O)N(C)CC(=O)N(C)[C@@H](CC(C)C)C(=O)N[C@@H](C(C)C)C(=O)N(C)[C@@H](CC(C)C)C(=O)N[C@@H](C)C(=O)N[C@H](COCC(=O)Nc2ccc(N=Nc3ccc(NC(=O)CCCC[C@@H]4SC[C@@H]5NC(=O)N[C@@H]54)cc3)cc2)C(=O)N(C)[C@@H](CC(C)C)C(=O)N(C)[C@@H](CC(C)C)C(=O)N(C)[C@@H](C(C)C)C(=O)N1C", "note": "[CsA-AB-Biotin]", "values": [
      {"measurement": "increase of inhibitory efficacy caused by IR irradiation (740 nm) of pretreated cells", "setting": "[1]; in situ irradiation, cells transfected with SA", "result": 11.5, "unit": "fold"},
      {"measurement": "enhancement of inhibition induced by IR irradiation (740 nm) of pretreated cells", "setting": "[1]; in situ irradiation, cells without SA transfection", "result": 1.5, "unit": "fold"},
      {"measurement": "trans/cis difference of activity in suppressing NFAT transcriptional activation", "setting": "[1]; absence of cellular SA", "result": 1.5},
      {"measurement": "trans/cis difference of activity in suppressing NFAT transcriptional activation", "setting": "[1]; cells transfected with SA", "result": 12}
    ]}
  ]
}
